Results published in the supplement of paper PMC10849652.
This is one part of the list.

By UniProt entry, the sequences of proteins in these tests, tags left out. Where a name states a change or a piece, a line headed by the entry shows the natural chain unless it says otherwise.
UniProt P42126: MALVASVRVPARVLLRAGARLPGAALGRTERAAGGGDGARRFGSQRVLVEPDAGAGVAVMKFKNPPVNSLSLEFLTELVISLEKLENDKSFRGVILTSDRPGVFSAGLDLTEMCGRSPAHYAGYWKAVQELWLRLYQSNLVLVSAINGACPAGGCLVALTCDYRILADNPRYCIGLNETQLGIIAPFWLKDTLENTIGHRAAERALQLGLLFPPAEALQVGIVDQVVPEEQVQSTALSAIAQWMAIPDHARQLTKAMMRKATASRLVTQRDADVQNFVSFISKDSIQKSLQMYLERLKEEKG
UniProt Q96C19: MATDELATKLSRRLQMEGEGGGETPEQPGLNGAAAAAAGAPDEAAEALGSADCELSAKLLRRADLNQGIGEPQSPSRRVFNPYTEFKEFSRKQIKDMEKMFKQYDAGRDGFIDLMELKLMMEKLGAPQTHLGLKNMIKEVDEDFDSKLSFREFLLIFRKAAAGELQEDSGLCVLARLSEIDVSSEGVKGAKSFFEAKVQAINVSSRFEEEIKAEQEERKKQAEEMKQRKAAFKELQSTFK
UniProt P26641, whole entry, looked up: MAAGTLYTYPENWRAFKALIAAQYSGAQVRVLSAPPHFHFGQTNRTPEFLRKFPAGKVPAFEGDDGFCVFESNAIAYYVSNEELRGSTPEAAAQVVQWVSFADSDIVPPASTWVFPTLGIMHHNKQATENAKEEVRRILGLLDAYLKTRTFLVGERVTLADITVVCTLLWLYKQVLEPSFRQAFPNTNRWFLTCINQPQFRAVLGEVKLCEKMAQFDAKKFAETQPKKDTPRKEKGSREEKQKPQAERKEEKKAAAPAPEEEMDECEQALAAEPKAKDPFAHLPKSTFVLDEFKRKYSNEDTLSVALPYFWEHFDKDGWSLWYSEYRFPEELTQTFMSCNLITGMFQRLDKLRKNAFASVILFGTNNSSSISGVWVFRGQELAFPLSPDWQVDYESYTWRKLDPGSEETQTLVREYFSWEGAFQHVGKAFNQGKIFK
UniProt P47813, whole entry, looked up: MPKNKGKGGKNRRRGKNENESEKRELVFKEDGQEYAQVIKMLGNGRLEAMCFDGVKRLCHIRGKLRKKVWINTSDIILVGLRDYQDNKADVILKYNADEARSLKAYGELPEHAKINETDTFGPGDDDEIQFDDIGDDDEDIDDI
UniProt P33316: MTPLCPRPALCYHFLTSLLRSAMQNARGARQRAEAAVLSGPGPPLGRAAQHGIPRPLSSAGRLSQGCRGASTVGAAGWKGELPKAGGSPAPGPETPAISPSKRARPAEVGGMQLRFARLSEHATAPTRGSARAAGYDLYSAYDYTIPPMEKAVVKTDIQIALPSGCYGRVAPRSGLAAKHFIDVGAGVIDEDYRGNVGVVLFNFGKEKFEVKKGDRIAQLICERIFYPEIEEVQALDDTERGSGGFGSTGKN
UniProt Q5VYK3, whole entry, looked up: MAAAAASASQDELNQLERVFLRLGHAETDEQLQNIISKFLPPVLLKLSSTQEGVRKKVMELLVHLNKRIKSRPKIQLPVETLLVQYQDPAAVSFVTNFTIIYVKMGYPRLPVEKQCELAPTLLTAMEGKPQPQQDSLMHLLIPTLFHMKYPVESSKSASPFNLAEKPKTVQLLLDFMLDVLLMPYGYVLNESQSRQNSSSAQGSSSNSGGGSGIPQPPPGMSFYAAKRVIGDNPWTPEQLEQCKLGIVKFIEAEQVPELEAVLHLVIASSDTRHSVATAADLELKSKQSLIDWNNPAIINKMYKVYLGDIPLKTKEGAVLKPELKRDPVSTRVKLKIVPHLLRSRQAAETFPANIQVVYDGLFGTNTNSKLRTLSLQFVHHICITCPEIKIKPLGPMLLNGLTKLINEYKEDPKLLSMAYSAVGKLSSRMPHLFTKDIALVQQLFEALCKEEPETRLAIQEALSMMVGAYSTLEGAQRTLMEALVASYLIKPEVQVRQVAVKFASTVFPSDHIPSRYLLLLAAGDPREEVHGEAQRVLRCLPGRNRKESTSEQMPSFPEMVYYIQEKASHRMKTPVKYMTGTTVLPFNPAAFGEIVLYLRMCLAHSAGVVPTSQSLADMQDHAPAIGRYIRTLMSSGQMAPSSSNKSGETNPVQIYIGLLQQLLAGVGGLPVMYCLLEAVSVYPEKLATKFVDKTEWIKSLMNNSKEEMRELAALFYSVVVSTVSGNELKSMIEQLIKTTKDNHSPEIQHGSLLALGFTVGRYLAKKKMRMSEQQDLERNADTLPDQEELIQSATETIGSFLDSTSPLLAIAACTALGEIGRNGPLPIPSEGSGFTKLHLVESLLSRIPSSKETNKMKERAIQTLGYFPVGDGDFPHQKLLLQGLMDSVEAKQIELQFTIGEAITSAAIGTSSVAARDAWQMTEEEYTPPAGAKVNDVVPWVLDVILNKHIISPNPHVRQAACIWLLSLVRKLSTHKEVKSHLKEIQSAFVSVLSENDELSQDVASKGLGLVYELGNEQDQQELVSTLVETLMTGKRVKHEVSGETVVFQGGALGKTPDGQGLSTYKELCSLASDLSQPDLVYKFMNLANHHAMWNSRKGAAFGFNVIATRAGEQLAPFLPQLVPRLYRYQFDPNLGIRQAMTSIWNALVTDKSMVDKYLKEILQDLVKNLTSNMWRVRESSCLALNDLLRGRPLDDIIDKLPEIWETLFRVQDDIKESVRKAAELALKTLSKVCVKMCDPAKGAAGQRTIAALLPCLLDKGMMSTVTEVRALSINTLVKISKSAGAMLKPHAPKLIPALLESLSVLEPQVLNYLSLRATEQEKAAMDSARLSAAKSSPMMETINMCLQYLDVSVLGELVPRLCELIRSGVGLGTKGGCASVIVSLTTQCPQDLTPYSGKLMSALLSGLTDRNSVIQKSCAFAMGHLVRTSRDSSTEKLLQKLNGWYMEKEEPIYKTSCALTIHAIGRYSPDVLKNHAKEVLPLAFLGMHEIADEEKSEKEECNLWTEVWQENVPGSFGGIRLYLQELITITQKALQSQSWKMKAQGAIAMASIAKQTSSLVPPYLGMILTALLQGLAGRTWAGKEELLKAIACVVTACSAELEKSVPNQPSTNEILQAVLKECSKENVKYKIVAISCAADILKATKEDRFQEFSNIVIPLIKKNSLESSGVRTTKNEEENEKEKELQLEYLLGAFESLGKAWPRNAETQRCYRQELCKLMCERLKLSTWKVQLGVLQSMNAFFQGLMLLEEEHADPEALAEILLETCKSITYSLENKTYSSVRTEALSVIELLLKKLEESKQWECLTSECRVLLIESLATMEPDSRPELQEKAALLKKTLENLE
UniProt Q9BTV6: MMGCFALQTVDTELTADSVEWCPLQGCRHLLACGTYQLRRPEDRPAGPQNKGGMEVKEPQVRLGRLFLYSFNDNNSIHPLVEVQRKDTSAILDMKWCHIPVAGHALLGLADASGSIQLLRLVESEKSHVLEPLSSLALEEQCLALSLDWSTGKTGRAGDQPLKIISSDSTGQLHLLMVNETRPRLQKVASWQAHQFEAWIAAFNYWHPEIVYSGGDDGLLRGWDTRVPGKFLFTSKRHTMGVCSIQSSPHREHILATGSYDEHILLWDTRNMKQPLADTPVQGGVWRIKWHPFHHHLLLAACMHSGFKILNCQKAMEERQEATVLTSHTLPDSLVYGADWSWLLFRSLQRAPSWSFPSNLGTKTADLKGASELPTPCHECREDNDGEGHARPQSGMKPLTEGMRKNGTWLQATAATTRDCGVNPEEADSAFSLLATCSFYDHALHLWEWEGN
UniProt Q99848: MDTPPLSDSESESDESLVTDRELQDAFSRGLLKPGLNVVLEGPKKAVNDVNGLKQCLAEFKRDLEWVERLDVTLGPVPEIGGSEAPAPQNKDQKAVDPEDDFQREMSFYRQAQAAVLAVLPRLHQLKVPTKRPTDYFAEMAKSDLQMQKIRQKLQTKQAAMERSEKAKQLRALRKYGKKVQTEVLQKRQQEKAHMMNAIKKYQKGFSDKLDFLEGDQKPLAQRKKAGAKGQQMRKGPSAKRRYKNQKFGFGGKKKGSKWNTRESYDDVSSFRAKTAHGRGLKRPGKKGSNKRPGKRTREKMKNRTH
UniProt Q5JPH6: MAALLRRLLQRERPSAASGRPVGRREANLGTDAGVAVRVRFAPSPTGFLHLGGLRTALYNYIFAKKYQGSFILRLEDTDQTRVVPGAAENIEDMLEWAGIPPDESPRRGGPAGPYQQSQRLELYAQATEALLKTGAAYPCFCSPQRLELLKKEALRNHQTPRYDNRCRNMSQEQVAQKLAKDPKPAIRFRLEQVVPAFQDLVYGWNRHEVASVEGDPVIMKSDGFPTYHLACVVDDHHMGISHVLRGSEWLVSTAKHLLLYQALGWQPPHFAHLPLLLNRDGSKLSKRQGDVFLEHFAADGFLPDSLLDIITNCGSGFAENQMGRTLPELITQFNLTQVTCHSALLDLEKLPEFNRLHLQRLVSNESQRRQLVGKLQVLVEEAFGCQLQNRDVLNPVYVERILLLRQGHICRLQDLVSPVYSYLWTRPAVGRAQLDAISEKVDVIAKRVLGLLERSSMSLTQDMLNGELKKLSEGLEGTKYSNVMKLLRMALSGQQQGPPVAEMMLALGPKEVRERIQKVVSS
UniProt O43237, whole entry, looked up: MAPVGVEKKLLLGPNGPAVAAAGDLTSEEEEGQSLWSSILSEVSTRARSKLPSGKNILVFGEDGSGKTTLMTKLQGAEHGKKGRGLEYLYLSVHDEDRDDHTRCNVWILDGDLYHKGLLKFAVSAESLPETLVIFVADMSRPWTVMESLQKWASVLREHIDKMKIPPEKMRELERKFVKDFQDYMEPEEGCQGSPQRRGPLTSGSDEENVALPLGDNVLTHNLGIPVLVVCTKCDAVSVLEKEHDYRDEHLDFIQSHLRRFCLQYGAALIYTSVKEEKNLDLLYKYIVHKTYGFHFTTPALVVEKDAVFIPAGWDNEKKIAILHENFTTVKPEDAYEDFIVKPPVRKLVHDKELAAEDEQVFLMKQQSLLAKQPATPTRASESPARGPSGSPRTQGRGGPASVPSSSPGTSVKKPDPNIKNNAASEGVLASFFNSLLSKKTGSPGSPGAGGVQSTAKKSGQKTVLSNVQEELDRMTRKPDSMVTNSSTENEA
UniProt Q01658: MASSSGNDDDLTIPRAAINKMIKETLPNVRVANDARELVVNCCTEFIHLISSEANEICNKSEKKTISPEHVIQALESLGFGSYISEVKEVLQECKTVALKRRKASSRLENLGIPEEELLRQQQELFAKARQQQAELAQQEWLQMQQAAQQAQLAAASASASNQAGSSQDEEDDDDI
UniProt Q6P2E9: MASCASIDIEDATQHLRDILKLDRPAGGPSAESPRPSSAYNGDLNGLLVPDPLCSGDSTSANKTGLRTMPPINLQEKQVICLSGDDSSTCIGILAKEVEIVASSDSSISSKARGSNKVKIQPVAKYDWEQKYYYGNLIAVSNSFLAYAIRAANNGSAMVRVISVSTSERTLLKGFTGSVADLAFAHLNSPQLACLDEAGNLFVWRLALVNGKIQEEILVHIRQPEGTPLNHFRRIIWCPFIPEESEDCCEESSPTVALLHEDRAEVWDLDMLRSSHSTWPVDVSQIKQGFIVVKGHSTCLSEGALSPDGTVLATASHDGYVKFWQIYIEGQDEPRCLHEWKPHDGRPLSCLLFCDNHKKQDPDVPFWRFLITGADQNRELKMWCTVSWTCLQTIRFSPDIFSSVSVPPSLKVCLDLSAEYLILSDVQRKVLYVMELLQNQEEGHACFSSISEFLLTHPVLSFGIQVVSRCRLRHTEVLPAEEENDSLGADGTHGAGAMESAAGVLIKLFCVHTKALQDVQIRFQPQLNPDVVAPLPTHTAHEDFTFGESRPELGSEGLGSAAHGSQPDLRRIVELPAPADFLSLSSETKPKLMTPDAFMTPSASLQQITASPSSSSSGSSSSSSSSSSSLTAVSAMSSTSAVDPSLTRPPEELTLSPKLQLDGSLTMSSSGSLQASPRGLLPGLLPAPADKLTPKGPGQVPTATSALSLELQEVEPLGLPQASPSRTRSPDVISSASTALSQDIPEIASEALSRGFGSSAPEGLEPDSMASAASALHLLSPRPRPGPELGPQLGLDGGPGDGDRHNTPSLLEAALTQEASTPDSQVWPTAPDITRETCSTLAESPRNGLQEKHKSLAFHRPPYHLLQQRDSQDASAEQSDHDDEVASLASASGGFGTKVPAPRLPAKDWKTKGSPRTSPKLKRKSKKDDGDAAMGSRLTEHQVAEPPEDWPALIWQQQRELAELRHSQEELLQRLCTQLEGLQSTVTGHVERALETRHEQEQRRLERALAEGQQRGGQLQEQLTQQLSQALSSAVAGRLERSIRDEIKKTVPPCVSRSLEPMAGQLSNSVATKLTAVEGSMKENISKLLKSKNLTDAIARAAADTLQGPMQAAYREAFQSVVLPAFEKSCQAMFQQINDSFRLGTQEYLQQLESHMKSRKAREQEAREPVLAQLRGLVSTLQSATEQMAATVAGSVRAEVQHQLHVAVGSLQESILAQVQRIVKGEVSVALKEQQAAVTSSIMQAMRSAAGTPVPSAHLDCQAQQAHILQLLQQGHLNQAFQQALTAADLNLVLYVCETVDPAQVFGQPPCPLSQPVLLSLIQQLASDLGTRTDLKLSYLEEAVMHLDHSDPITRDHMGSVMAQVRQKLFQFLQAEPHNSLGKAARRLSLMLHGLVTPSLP

What was measured:
Test in all cases: log2 fold change, soluble protein after heating vs DMSO (PISA); higher = thermal stabilisation; K562 lysate, 10 uM; active = over 0.2 and 3.5 SD of the protein, either way, in both replicates (recomputed)
ibrutinib = compound: C=CC(=O)N1CCC[C@@H](n2nc(-c3ccc(Oc4ccccc4)cc3)c3c(N)ncnc32)C1 [ibrutinib]
In short: (§1)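 K562 pellets were dounce-homogenised in PBS pH 7.4 containing 1 mM MgCl2, and the crude extract, at 1 mg/mL protein, was exposed to 10 μM compound for 30 min. Aliquots were heated for 3 min across 48°C-58°C, pooled, brought to 0.5% NP-40 at 4°C and spun at 21,000xg for 90 min, with the supernatant taken as soluble protein. TMTpro 16plex LC-MS/MS with equalised channel sums quantified that protein. Values are log-two fold changes in thermal stability relative to solvent controls, taken from duplicates.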

[1] = compound: CC(=O)c1cnc2ccc(-c3cc(Cl)c(O)c(Cl)c3)nc2c1N[C@H]1CC[C@H](CN(C)C)CC1
In short: as §1

ralimetinib = compound: CC(C)(C)Cn1c(N)nc2ccc(-c3[nH]c(C(C)(C)C)nc3-c3ccc(F)cc3)nc21 [ralimetinib]
In short: as §1

[2] = compound: CC(C)(O)CC(=O)NCCn1ccc2ncnc(Nc3ccc(Oc4cccc(C(F)(F)F)c4)c(Cl)c3)c21
In short: as §1

[3] = compound: CC(C)C1=C2N=C(C=C(N2N=C1)NCC3=CC=CC=C3)NCCCCCCN
In short: as §1

[4] = compound: CC1=C(C(CC(=O)N1)C2=CC=C(C=C2)C(F)(F)F)C(=O)NC3=C(C=C4C(=C3)C=NN4)F
In short: as §1

[5] = compound: CC1=C(C2=C(C=C1)C(=O)C3=CC=CC=C3N2CCCN)C
In short: as §1

[6] = compound: CC1=C(C=C(C=C1)NC(=O)C2=CC(=CC=C2)C(C)(C)C#N)NC3=CC4=C(C=C3)N=CN(C4=O)C
In short: as §1

[7] = compound: CC1=C(C=C(C=C1)NC(=O)C2=CC(=CC=C2)N(C)C)NC(=O)C3=CC=C(C=C3)O
In short: as §1

[8] = compound: CC1=CC=C(C=C1)SC2=C3C=C(SC3=CN=C2)C(=O)N
In short: as §1

Measured: log2 fold change

ECI1 (UniProt P42126)
inactive: ibrutinib 0.04 | [1] 0.019 | ralimetinib 0.033 | [2] 0.023 | [3] -0.015 | [4] -0.017 | [5] -0.006 | [6] -0.002 | [7] -0.037 | [8] 0.001

EFHD1 (UniProt Q9BUP0)
inactive: ibrutinib 0.015 | [1] -0.015 | ralimetinib -0.026 | [2] -0.044 | [3] -0.04 | [4] -0.065 | [5] -0.022 | [6] 0.04 | [7] 0.015 | [8] -0.023

DUSP12 (UniProt Q9UNI6)
inactive: ibrutinib -0.008 | [1] -0.011 | ralimetinib -0.016 | [2] -0.026 | [3] -0.012 | [4] -0.005 | [5] -0.004 | [6] 0.011 | [7] 0 | [8] 0.001

ECHS1 (UniProt P30084)
inactive: ibrutinib 0.019 | [1] 0.005 | ralimetinib 0.017 | [2] 0.019 | [3] -0.025 | [4] -0.02 | [5] 0.022 | [6] -0.009 | [7] 0.015 | [8] 0.011

EFHD2 (UniProt Q96C19)
inactive: ibrutinib 0.007 | [1] 0.006 | ralimetinib 0.01 | [2] 0.009 | [3] -0.015 | [4] -0.03 | [5] -0.013 | [6] 0.006 | [7] -0.007 | [8] 0.008

EEF1G isoform 2 (UniProt P26641)
inactive: ibrutinib 0.038 | [1] 0.009 | ralimetinib -0.014 | [2] 0.012 | [3] 0.002 | [4] 0.001 | [5] 0.02 | [6] -0.015 | [7] -0.004 | [8] 0.046

ECHDC3 (UniProt Q96DC8)
inactive: ibrutinib -0.01 | [1] -0.023 | ralimetinib -0.08 | [2] -0.029 | [3] -0.014 | [4] 0.05 | [5] -0.029 | [6] 0.007 | [7] -0.006 | [8] -0.01

EAF1 (UniProt Q96JC9)
inactive: ibrutinib -0.004 | [1] -0.037 | ralimetinib 0.037 | [2] -0.067 | [3] 0.028 | [4] 0.041 | [5] 0.003 | [6] 0.061 | [7] -0.015 | [8] -0.021

E2F3 (UniProt O00716)
inactive: ibrutinib 0.012 | [1] -0.028 | ralimetinib 0.001 | [2] -0.059 | [3] -0.024 | [4] -0.09 | [5] 0.031 | [6] 0.053 | [7] 0.013 | [8] -0.142

DUSP23 (UniProt Q9BVJ7)
inactive: ibrutinib 0.036 | [1] -0.065 | ralimetinib -0.04 | [2] -0.084 | [3] 0.006 | [4] -0.004 | [5] 0.013 | [6] 0.019 | [7] -0.079 | [8] 0

DTD1 (UniProt Q8TEA8)
inactive: ibrutinib 0.028 | [1] 0.048 | ralimetinib -0.013 | [2] 0 | [3] -0.043 | [4] -0.023 | [5] 0.028 | [6] -0.018 | [7] 0.011 | [8] -0.007

EIF1AX (UniProt P47813)
inactive: ibrutinib -0.02 | [1] -0.034 | ralimetinib 0.017 | [2] 0.05 | [3] -0.008 | [4] -0.013 | [5] 0.012 | [6] -0.019 | [7] -0.019 | [8] -0.016

DUT (UniProt P33316)
inactive: ibrutinib -0.001 | [1] 0.002 | ralimetinib 0.011 | [2] 0.002 | [3] -0.027 | [4] -0.024 | [5] -0.027 | [6] -0.034 | [7] -0.019 | [8] -0.023

ECPAS (UniProt Q5VYK3)
inactive: ibrutinib -0.026 | [1] -0.006 | ralimetinib 0.019 | [2] -0.025 | [3] -0.017 | [4] 0.002 | [5] -0.002 | [6] 0.01 | [7] 0.024 | [8] -0.009

DPYSL2 (UniProt Q16555)
inactive: ibrutinib 0.046 | [1] 0.011 | ralimetinib 0.036 | [2] -0.024 | [3] 0.036 | [4] 0.013 | [5] 0.02 | [6] 0.019 | [7] 0.029 | [8] -0.002

DPH7 (UniProt Q9BTV6)
inactive: ibrutinib -0.002 | [1] 0.03 | ralimetinib 0.048 | [2] -0.055 | [3] -0.043 | [4] -0.009 | [5] 0.031 | [6] 0.057 | [7] -0.012 | [8] -0.009

EBNA1BP2 (UniProt Q99848)
inactive: ibrutinib 0.021 | [1] -0.011 | ralimetinib -0.001 | [2] -0.036 | [3] -0.02 | [4] -0.007 | [5] -0.021 | [6] -0.012 | [7] 0.016 | [8] 0.023

2 entries drawn at random from the list so far, as already listed:
DPH7 (UniProt Q9BTV6)
inactive: ibrutinib -0.002 | [1] 0.03 | ralimetinib 0.048 | [2] -0.055 | [3] -0.043 | [4] -0.009 | [5] 0.031 | [6] 0.057 | [7] -0.012 | [8] -0.009

ECPAS (UniProt Q5VYK3)
inactive: ibrutinib -0.026 | [1] -0.006 | ralimetinib 0.019 | [2] -0.025 | [3] -0.017 | [4] 0.002 | [5] -0.002 | [6] 0.01 | [7] 0.024 | [8] -0.009

Later entries

EARS2 (UniProt Q5JPH6)
inactive: ibrutinib -0.025 | [1] 0.009 | ralimetinib 0.006 | [2] 0.016 | [3] -0.02 | [4] 0.003 | [5] -0.071 | [6] 0.009 | [7] 0 | [8] -0.034

DUS2 (UniProt Q9NX74)
inactive: ibrutinib 0.071 | [1] -0.036 | ralimetinib 0.026 | [2] 0.097 | [3] -0.003 | [4] -0.056 | [5] -0.029 | [6] -0.004 | [7] 0.091 | [8] 0.01

DYNC1LI2 (UniProt O43237)
inactive: ibrutinib -0.014 | [1] 0.02 | ralimetinib 0 | [2] -0.08 | [3] 0.014 | [4] 0.212 | [5] -0.082 | [6] 0.112 | [7] 0.002 | [8] 0.006

EHD1 (UniProt Q9H4M9)
inactive: ibrutinib 0.001 | [1] -0.001 | ralimetinib -0.004 | [2] -0.013 | [3] -0.017 | [4] -0.006 | [5] 0.004 | [6] 0.023 | [7] 0.019 | [8] 0.012

E4F1 (UniProt Q66K89)
inactive: ibrutinib 0.249 | [1] -0.001 | ralimetinib 0.132 | [2] -0.081 | [3] -0.176 | [4] 0.038 | [5] -0.049 | [6] 0.114 | [7] -0.052 | [8] -0.024

DR1 (UniProt Q01658)
inactive: ibrutinib 0.031 | [1] 0.004 | ralimetinib -0.018 | [2] -0.08 | [3] 0.009 | [4] 0 | [5] -0.01 | [6] 0.001 | [7] 0.017 | [8] -0.011

EEF1E1 (UniProt O43324)
inactive: ibrutinib 0.01 | [1] 0.012 | ralimetinib 0.031 | [2] -0.023 | [3] -0.01 | [4] -0.005 | [5] 0.008 | [6] -0.005 | [7] -0.006 | [8] 0.02

EDEM3 (UniProt Q9BZQ6)
inactive: ibrutinib -0.025 | [1] 0.011 | ralimetinib 0.003 | [2] -0.024 | [3] -0.018 | [4] 0.037 | [5] 0.014 | [6] -0.002 | [7] 0.018 | [8] 0.004

EFL1 (UniProt Q7Z2Z2)
inactive: ibrutinib 0.004 | [1] 0 | ralimetinib -0.008 | [2] 0.005 | [3] -0.011 | [4] 0.012 | [5] 0.014 | [6] 0 | [7] 0.025 | [8] -0.009

EEF1AKNMT (UniProt Q8N6R0)
inactive: ibrutinib -0.016 | [1] 0.017 | ralimetinib 0.096 | [2] 0.023 | [3] 0.017 | [4] -0.003 | [5] -0.024 | [6] 0.002 | [7] -0.021 | [8] 0.002

ECSIT (UniProt Q9BQ95)
inactive: ibrutinib -0.056 | [1] -0.017 | ralimetinib 0.05 | [2] -0.083 | [3] 0.025 | [4] 0.01 | [5] -0.029 | [6] 0.063 | [7] -0.062 | [8] -0.017

EDC4 (UniProt Q6P2E9)
inactive: ibrutinib -0.001 | [1] 0.001 | ralimetinib 0.028 | [2] -0.009 | [3] -0.011 | [4] 0.004 | [5] -0.006 | [6] 0.006 | [7] 0 | [8] -0.019

DPM1 (UniProt O60762)
inactive: ibrutinib -0.016 | [1] -0.018 | ralimetinib -0.025 | [2] -0.027 | [3] -0.009 | [4] 0.033 | [5] 0.015 | [6] 0.006 | [7] 0.014 | [8] 0.023
